Among the data in publication PMC3675359, “GxcC connects Rap and Rac signaling during Dictyostelium development” (BMC Cell Biology, 2013) are binding values, retold here.

By UniProt entry, the sequences of proteins in these tests, tags left out. Where a name states a change or a piece, a line headed by the entry shows the natural chain unless it says otherwise.
UniProt P18613: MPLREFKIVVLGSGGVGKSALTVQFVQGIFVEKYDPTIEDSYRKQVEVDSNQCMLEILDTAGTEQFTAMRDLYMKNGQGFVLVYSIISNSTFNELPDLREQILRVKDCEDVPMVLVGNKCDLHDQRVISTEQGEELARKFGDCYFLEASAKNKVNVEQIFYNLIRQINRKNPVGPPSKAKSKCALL

Assay [1] addresses T1, GST-ARM (N-terminal construct of GxcC, base pairs 1-1911), expressed in Dictyostelium (Dictyostelium discoideum) (UniProt Q54P24).
T1 sequence: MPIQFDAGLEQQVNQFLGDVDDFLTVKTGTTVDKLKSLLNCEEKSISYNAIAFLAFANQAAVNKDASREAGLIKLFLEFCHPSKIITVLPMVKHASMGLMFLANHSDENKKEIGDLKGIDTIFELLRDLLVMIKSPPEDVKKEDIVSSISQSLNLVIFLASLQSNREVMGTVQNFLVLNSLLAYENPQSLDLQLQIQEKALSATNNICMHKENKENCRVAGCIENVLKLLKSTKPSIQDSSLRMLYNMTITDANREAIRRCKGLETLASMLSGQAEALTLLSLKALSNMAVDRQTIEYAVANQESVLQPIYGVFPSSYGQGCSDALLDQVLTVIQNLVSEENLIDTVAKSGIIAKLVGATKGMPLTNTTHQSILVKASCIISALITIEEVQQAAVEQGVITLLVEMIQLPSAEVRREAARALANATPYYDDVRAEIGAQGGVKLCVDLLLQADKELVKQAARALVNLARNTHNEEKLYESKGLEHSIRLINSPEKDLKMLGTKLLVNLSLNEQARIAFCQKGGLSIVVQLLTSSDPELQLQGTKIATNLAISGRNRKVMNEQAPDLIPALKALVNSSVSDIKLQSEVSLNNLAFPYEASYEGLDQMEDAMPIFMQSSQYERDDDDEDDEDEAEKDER
In words: pull-down; GST-tagged GxcC constructs (bait) and GFP-RapA^CA (prey) co-expressed in Dictyostelium; lysate in LB buffer (1% Triton X-100, 150 mM NaCl, 10 mM MgCl2, pH 7.2) with GSH beads overnight at 4°C; anti-GFP western blot. (A western blot detects proteins with antibodies after separation by electrophoresis.)

Assay [2] addresses T2, GST-GxcC (Dictyostelium discoideum) (UniProt Q54P24).
T2 sequence: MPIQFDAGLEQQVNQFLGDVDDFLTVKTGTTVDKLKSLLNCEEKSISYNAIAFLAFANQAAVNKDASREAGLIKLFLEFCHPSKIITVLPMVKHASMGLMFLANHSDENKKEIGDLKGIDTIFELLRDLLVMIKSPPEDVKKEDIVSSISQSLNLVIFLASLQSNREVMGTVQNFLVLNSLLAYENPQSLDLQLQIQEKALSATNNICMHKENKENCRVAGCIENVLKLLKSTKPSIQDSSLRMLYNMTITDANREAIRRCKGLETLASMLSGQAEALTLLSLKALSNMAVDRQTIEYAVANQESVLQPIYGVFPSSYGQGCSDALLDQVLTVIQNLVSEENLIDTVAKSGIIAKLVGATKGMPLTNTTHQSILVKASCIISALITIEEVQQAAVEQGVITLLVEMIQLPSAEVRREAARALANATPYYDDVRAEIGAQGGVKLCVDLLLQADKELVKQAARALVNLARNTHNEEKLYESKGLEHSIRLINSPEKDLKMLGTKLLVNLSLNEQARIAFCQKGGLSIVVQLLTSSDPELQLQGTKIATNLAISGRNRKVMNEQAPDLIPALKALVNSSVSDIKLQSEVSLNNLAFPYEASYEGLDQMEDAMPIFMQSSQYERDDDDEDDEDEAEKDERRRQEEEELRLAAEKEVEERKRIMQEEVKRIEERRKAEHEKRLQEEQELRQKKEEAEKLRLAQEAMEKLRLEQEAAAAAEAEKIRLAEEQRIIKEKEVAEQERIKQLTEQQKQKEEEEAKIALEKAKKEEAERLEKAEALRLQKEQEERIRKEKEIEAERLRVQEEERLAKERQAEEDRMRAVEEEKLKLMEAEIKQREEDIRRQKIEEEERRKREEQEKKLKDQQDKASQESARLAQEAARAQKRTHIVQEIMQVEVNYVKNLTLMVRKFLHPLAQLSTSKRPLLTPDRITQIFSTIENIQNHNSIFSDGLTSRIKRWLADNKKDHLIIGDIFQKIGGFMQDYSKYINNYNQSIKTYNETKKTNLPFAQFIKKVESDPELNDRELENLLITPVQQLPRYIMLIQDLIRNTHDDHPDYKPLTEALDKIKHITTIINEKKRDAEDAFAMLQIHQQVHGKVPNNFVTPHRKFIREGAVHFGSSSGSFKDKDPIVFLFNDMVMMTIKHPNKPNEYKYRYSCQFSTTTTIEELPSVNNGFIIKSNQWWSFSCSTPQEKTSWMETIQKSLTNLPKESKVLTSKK
The assay is described as above.

The target in assay [3] is GST-RapA^CA (Dictyostelium discoideum) (UniProt P18613). In words: pull-down; GST-RapA^CA, GST-RasC^CA, GST-RasG^CA or GST alone (bait) and GFP-ARM (prey) overexpressed in Dictyostelium; cells in PB or PB with 5 μM Latrunculin A for 10 minutes prior to lysis; GSH beads; anti-GFP western blot.
The target of assay [4] is GST-RacH (Dictyostelium discoideum). In words: pull-down; purified GST-Rac proteins coupled to GSH beads, incubated with pre-cleared lysate of vegetative GFP-GxcC Dictyostelium cells in the presence of EDTA, 4°C for 1 hour; anti-GFP and anti-GST western blot; only the target purified.
For assay [5], the target named is GST-RacI (Dictyostelium discoideum). Described as above.

These are yes or no findings as the source states them, for the method shown. Binding seen in cells or lysates may run through a third protein. Binding calls can cover weak binding; strength is not graded here. Where a sequence is shown, tags or fusion partners need not be part of it.

For the molecule GFP-RapA^CA (from UniProt P18613), the binding entry in assay [1] and in assay [2] was “binds” each time.

B1: GFP-ARM (N-terminal construct of GxcC, base pairs 1-1911) (domain or fragment, UniProt Q54P24 1-637)
chain: T1 sequence
Turning to B1, in assay [3], the binding result was “binds”.

B2: GFP-GxcC (protein, UniProt Q54P24 1-1215)
chain: T2 sequence
B2: the binding result in assay [4] and in assay [5] was “binds” throughout.
